Patent US20250283871A1, “COMPOSITIONS AND METHODS FOR MODULATING THE INTERACTION BETWEEN SS18-SSX FUSION ONCOPROTEIN AND NUCLEOSOMES” (Dana-Farber Cancer Institute, Inc., priority 2020, published 2025)

System: BAF complex subunits and histone proteins
Assay: Mass spectrometry proteomics of purified HA-SS18 WT and HA-SS18-SSX1 complexes (Tables 5A-5E)
Set-up: species or system human
[1] = HA-SS18SSX1_NE_peptides: protein co-purified with HA-SS18-SSX1 BAF complexes from soluble nuclear extract (NE), HEK-293T cells
[2] = HA-SS18WT_NE_peptides: proteins co-purified with HA-SS18 WT from nuclear extract (NE), HEK-293T
[3] = HA-SS18WT_NE_peptides: HA-SS18 WT complexes purified from nuclear extract (NE), HEK-293T, label = protein identified (Gene Symbol)

Row | Molecule | Total (peptides) [1] | Unique (peptides) [1] | Total (peptides) [2] | Unique (peptides) [2] | Total (peptides) [3] | Unique (peptides) [3]
1 | TM9SF3 (protein, UniProt Q9HD45 29-589, looked up) Transmembrane 9 superfamily …: DEHEHTYQDKEEVVLWMNTVGPYHNRQETYKYFSLPFCVGSKKSISHYHETLGEALQGVELEFSGLDIKFKDDVMPATYCEIDLDKEKRDAFVYAIKNHYWYQMYIDDLPIWGIVGEADENGEDYYLWTYKKLEIGFNGNRIVDVNLTSEGKVKLVPNTKIQMSYSVKWKKSDVKFEDRFDKYLDPSFFQHRIHWFSIFNSFMMVIFLVGLVSMILMRTLRKDYARYSKEEEMDDMDRDLGDEYGWKQVHGDVFRPSSHPLIFSSLIGSGCQIFAVSLIVIIVAMIEDLYTERGSMLSTAIFVYAATSPVNGYFGGSLYARQGGRRWIKQMFIGAFLIPAMVCGTAFFINFIAIYYHASRAIPFGTMVAVCCICFFVILPLNLVGTILGRNLSGQPNFPCRVNAVPRPIPEKKWFMEPAVIVCLGGILPFGSIFIEMYFIFTSFWAYKIYYVYGFMMLVLVILCIVTVCVTIVCTYFLLNAEDYRWQWTSFLSAASTAIYVYMYSFYYYFFKTKMYGLFQTSFYFGYMAVFSTALGIMCGAIGYMGTSAFVRKIYTNVKID | 2 | 2 | 2 | 2 |  | 
2 | PARP2 (protein, UniProt Q9UGN5 1-583, looked up) Poly [ADP-ribose] polymerase 2: MAARRRRSTGGGRARALNESKRVNNGNTAPEDSSPAKKTRRCQRQESKKMPVAGGKANKDRTEDKQDGMPGRSWASKRVSESVKALLLKGKAPVDPECTAKVGKAHVYCEGNDVYDVMLNQTNLQFNNNKYYLIQLLEDDAQRNFSVWMRWGRVGKMGQHSLVACSGNLNKAKEIFQKKFLDKTKNNWEDREKFEKVPGKYDMLQMDYATNTQDEEETKKEESLKSPLKPESQLDLRVQELIKLICNVQAMEEMMMEMKYNTKKAPLGKLTVAQIKAGYQSLKKIEDCIRAGQHGRALMEACNEFYTRIPHDFGLRTPPLIRTQKELSEKIQLLEALGDIEIAIKLVKTELQSPEHPLDQHYRNLHCALRPLDHESYEFKVISQYLQSTHAPTHSDYTMTLLDLFEVEKDGEKEAFREDLHNRMLLWHGSRMSNWVGILSHGLRIAPPEAPITGYMFGKGIYFADMSSKSANYCFASRLKNTGLLLLSEVALGQCNELLEANPKAEGLLQGKHSTKGLGKMAPSSAHFVTLNGSTVPLGPASDTGILNPDGYTLNYNEYIVYNPNQVRMRYLLKVQFNFLQLW | 2 | 2 |  |  |  | 
3 | HM13 (protein, UniProt Q8TCT9 1-377, looked up) Signal peptide peptidase: MDSALSDPHNGSAEAGGPTNSTTRPPSTPEGIALAYGSLLLMALLPIFFGALRSVRCARGKNASDMPETITSRDAARFPIIASCTLLGLYLFFKIFSQEYINLLLSMYFFVLGILALSHTISPFMNKFFPASFPNRQYQLLFTQGSGENKEEIINYEFDTKDLVCLGLSSIVGVWYLLRKHWIANNLFGLAFSLNGVELLHLNNVSTGCILLGGLFIYDVFWVFGTNVMVTVAKSFEAPIKLVFPQDLLEKGLEANNFAMLGLGDVVIPGIFIALLLRFDISLKKNTHTYFYTSFAAYIFGLGLTIFIMHIFKHAQPALLYLVPACIGFPVLVALAKGEVTEMFSYEESNPKDPAAVTESKEGTEASASKGLEKKEK | 2 | 2 |  |  | 3 | 2
4 | LPCAT1 (protein, UniProt Q8NF37 1-534, looked up) Lysophosphatidylcholine …: MRLRGCGPRAAPASSAGASDARLLAPPGRNPFVHELRLSALQKAQVALMTLTLFPVRLLVAAAMMLLAWPLALVASLGSAEKEPEQPPALWRKVVDFLLKAIMRTMWFAGGFHRVAVKGRQALPTEAAILTLAPHSSYFDAIPVTMTMSSIVMKAESRDIPIWGTLIQYIRPVFVSRSDQDSRRKTVEEIKRRAQSNGKWPQIMIFPEGTCTNRTCLITFKPGAFIPGAPVQPVVLRYPNKLDTITWTWQGPGALEILWLTLCQFHNQVEIEFLPVYSPSEEEKRNPALYASNVRRVMAEALGVSVTDYTFEDCQLALAEGQLRLPADTCLLEFARLVRGLGLKPEKLEKDLDRYSERARMKGGEKIGIAEFAASLEVPVSDLLEDMFSLFDESGSGEVDLRECVVALSVVCRPARTLDTIQLAFKMYGAQEDGSVGEGDLSCILKTALGVAELTVTDLFRAIDQEEKGKITFADFHRFAEMYPAFAEEYLYPDQTHFESCAETSPAPIPNGFCADFSPENSDAGRKPVRKKLD | 2 | 2 |  |  | 2 | 2
5 | MTX1 (protein, UniProt Q13505 1-466, looked up) Metaxin-1: MLLGGPPRSPRSGTSPKGPWSSTGHVQFGKSPQTWPRRTRPRSPEPAAPSGVRGSTWTRRRDSPRRAGPTALSRYVGHLWMGRRPPSPEARGPVPRSSAASRARRSLASPGISPGPLTATIGGAVAGGGPRQGRAEAHKEVFPGQRVGKMAAPMELFCWSGGWGLPSVDLDSLAVLTYARFTGAPLKVHKISNPWQSPSGTLPALRTSHGEVISVPHKIITHLRKEKYNADYDLSARQGADTLAFMSLLEEKLLPVLVHTFWIDTKNYVEVTRKWYAEAMPFPLNFFLPGRMQRQYMERLQLLTGEHRPEDEEELEKELYREARECLTLLSQRLGSQKFFFGDAPASLDAFVFSYLALLLQAKLPSGKLQVHLRGLHNLCAYCTHILSLYFPWDGAEVPPQRQTPAGPETEEEPYRRRNQILSVLAGLAAMVGYALLSGIVSIQRATPARAPGTRTLGMAEEDEEE | 2 | 2 | 2 | 2 |  | 
6 | GUF1 (protein, UniProt Q8N442 50-669, looked up) Translation factor GUF1, …: SSAEFKEKLDMSRFPVENIRNFSIVAHVDHGKSTLADRLLELTGTIDKTKNNKQVLDKLQVERERGITVKAQTASLFYNCEGKQYLLNLIDTPGHVDFSYEVSRSLSACQGVLLVVDANEGIQAQTVANFFLAFEAQLSVIPVINKIDLKNADPERVENQIEKVFDIPSDECIKISAKLGTNVESVLQAIIERIPPPKVHRKNPLRALVFDSTFDQYRGVIANVALFDGVVSKGDKIVSAHTQKTYEVNEVGVLNPNEQPTHKLYAGQVGYLIAGMKDVTEAQIGDTLCLHKQPVEPLPGFKSAKPMVFAGMYPLDQSEYNNLKSAIEKLTLNDSSVTVHRDSSLALGAGWRLGFLGLLHMEVFNQRLEQEYNASVILTTPTVPYKAVLSSSKLIKEHREKEITIINPAQFPDKSKVTEYLEPVVLGTIITPDEYTGKIMMLCEARRAVQKNMIFIDQNRVMLKYLFPLNEIVVDFYDSLKSLSSGYASFDYEDAGYQTAELVKMDILLNGNTVEELVTVVHKDKAHSIGKAICERLKDSLPRQLFEIAIQAAIGSKIIARETVKAYRKNVLAKCYGGDITRKMKLLKRQAEGKKKLRKIGNVEVPKDAFIKVLKTQSSK | 2 | 2 | 1 | 1 |  | 
7 | SLC25A32 (protein, UniProt Q9H2D1 1-315, looked up) Solute carrier family 25 …: MTGQGQSASGSSAWSTVFRHVRYENLIAGVSGGVLSNLALHPLDLVKIRFAVSDGLELRPKYNGILHCLTTIWKLDGLRGLYQGVTPNIWGAGLSWGLYFFFYNAIKSYKTEGRAERLEATEYLVSAAEAGAMTLCITNPLWVTKTRLMLQYDAVVNSPHRQYKGMFDTLVKIYKYEGVRGLYKGFVPGLFGTSHGALQFMAYELLKLKYNQHINRLPEAQLSTVEYISVAALSKIFAVAATYPYQVVRARLQDQHMFYSGVIDVITKTWRKEGVGGFYKGIAPNLIRVTPACCITFVVYENVSHFLLDLREKRK | 2 | 2 |  |  |  | 
8 | CHP1 (protein, UniProt Q99653 2-195, looked up) Calcineurin B homologous …: GSRASTLLRDEELEEIKKETGFSHSQITRLYSRFTSLDKGENGTLSREDFQRIPELAINPLGDRIINAFFPEGEDQVNFRGFMRTLAHFRPIEDNEKSKDVNGPEPLNSRSNKLHFAFRLYDLDKDEKISRDELLQVLRMMVGVNISDEQLGSIADRTIQEADQDGDSAISFTEFVKVLEKVDVEQKMSIRFLH | 2 | 2 | 1 | 1 |  | 
9 | GGCX (protein, UniProt P38435 2-758, looked up) Vitamin K-dependent …: AVSAGSARTSPSSDKVQKDKAELISGPRQDSRIGKLLGFEWTDLSSWRRLVTLLNRPTDPASLAVFRFLFGFLMVLDIPQERGLSSLDRKYLDGLDVCRFPLLDALRPLPLDWMYLVYTIMFLGALGMMLGLCYRISCVLFLLPYWYVFLLDKTSWNNHSYLYGLLAFQLTFMDANHYWSVDGLLNAHRRNAHVPLWNYAVLRGQIFIVYFIAGVKKLDADWVEGYSMEYLSRHWLFSPFKLLLSEELTSLLVVHWGGLLLDLSAGFLLFFDVSRSIGLFFVSYFHCMNSQLFSIGMFSYVMLASSPLFCSPEWPRKLVSYCPRRLQQLLPLKAAPQPSVSCVYKRSRGKSGQKPGLRHQLGAAFTLLYLLEQLFLPYSHFLTQGYNNWTNGLYGYSWDMMVHSRSHQHVKITYRDGRTGELGYLNPGVFTQSRRWKDHADMLKQYATCLSRLLPKYNVTEPQIYFDIWVSINDRFQQRIFDPRVDIVQAAWSPFQRTSWVQPLLMDLSPWRAKLQEIKSSLDNHTEVVFIADFPGLHLENFVSEDLGNTSIQLLQGEVTVELVAEQKNQTLREGEKMQLPAGEYHKVYTTSPSPSCYMYVYVNTTELALEQDLAYLQELKEKVENGSETGPLPPELQPLLEGEVKGGPEPTPLVQTFLRRQQRLQEIERRRNTPFHERFFRFLLRKLYVFRRSFLMTCISLRNLILGRPSLEQLAQEVTYANLRPFEAVGELNPSNTDSSHSNPPESNPDPVHSEF | 2 | 2 | 1 | 1 |  | 
10 | EHD4 (protein, UniProt Q9H223 1-541, looked up) EH domain-containing protein 4: MFSWMGRQAGGRERAGGADAVQTVTGGLRSLYLRKVLPLEEAYRFHEFHSPALEDADFENKPMILLVGQYSTGKTTFIRYLLEQDFPGMRIGPEPTTDSFIAVMYGETEGSTPGNALVVDPKKPFRKLSRFGNAFLNRFMCSQLPNQVLKSISVIDSPGILSGEKQRISRGYDFCQVLQWFAERVDRIILLFDAHKLDISDEFSEAIKAFRGQDDKIRVVLNKADQVDTQQLMRVYGALMWSLGKVINTPEVLRVYIGSFWAQPLQNTDNRRLFEAEAQDLFRDIQSLPQKAAVRKLNDLIKRARLAKVHAYIISYLKKEMPSVFGKENKKRELISRLPEIYIQLQREYQISAGDFPEVKAMQEQLENYDFTKFHSLKPKLIEAVDNMLSNKISPLMNLISQEETSTPTQLVQGGAFDGTTEGPFNQGYGEGAKEGADEEEWVVAKDKPVYDELFYTLSPINGKISGVNAKKEMVTSKLPNSVLGKIWKLADCDCDGMLDEEEFALAKHLIKIKLDGYELPSSLPPHLVPPSHRKSLPKAD | 2 | 2 |  |  |  | 
